According to the supplement of paper PMC10849652:
Some of the results follow.

Protein sequences, listed by entry. Tags and fused reporters are not part of them. Lines headed by an entry give the natural chain unless they say otherwise; changes in a name come on top.
UniProt O75116: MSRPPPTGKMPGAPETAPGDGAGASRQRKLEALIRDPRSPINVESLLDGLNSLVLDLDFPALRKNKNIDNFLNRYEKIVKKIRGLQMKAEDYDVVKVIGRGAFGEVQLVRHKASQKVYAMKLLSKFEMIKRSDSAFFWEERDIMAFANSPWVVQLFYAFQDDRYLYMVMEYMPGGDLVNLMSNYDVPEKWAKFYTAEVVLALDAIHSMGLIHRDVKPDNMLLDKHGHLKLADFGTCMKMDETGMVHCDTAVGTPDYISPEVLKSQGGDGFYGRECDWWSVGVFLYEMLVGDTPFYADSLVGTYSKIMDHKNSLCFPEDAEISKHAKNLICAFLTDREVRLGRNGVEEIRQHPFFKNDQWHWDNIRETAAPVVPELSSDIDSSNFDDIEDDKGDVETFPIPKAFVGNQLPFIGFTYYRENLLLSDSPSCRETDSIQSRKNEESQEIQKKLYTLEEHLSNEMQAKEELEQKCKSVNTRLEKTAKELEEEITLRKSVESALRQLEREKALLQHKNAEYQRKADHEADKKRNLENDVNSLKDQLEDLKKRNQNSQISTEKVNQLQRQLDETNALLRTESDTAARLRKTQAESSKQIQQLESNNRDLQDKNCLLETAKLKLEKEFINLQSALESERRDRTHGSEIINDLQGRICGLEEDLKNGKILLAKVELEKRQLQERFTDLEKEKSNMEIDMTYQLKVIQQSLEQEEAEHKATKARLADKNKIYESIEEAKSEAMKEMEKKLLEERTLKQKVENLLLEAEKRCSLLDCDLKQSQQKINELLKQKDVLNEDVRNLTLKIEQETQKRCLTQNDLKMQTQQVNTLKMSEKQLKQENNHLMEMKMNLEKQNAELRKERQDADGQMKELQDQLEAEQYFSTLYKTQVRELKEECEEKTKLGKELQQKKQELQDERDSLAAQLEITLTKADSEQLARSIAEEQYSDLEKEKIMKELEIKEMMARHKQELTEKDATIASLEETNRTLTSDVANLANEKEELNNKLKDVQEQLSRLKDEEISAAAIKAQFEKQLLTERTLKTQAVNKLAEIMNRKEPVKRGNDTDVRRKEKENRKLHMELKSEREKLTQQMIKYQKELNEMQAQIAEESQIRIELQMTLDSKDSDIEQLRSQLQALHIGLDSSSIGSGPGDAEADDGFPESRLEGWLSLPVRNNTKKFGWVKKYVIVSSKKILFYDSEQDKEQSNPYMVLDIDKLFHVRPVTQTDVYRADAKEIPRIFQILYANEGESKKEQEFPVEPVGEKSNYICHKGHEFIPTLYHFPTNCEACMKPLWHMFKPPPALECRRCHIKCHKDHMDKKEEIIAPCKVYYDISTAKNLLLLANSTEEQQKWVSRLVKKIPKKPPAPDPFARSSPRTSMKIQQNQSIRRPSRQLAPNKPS
UniProt Q9BUL9: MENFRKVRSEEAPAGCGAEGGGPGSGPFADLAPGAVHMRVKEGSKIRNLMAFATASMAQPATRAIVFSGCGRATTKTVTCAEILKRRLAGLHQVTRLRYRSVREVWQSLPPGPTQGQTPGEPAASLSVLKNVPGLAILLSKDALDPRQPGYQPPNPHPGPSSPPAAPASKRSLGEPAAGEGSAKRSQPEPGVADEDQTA
UniProt P10155: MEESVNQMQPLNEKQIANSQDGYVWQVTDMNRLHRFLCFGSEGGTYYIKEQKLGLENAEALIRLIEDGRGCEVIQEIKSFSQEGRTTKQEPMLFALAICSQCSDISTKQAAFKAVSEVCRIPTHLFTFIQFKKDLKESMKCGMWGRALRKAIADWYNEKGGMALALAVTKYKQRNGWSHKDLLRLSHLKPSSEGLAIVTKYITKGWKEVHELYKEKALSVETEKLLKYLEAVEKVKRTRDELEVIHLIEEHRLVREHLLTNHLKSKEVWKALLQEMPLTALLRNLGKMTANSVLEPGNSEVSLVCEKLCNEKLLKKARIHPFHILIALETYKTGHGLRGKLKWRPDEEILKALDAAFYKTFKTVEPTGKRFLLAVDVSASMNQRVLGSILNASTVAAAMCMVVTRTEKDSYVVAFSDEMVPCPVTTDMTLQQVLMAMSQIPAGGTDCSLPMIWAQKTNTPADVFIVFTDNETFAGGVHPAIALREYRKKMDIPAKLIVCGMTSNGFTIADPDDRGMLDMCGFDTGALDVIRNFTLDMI
UniProt Q99942: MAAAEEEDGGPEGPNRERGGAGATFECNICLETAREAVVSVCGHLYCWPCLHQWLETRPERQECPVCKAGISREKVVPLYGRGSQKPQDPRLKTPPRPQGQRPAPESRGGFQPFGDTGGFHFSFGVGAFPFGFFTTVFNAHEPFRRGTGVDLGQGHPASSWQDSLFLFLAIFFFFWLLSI
UniProt P49247: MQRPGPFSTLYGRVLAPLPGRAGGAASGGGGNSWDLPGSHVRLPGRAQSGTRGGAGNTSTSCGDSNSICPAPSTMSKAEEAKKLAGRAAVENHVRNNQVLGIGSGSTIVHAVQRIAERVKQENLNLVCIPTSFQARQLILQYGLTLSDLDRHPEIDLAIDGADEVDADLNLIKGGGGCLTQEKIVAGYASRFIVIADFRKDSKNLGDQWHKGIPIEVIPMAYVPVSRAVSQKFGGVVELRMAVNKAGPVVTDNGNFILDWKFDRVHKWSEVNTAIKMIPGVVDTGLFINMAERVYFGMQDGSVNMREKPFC
UniProt P78346: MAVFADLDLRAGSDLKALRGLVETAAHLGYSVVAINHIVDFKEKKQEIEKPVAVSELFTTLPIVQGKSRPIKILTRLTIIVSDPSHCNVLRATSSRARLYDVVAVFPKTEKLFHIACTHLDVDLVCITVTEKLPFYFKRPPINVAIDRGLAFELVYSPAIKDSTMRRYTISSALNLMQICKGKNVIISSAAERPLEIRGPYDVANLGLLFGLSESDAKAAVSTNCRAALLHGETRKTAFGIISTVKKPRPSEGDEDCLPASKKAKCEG
UniProt Q8N5L8: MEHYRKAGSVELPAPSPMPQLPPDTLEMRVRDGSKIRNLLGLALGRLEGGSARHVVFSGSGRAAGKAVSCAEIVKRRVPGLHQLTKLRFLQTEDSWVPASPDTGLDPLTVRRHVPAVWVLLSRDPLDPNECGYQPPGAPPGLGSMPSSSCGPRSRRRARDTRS
UniProt O95059: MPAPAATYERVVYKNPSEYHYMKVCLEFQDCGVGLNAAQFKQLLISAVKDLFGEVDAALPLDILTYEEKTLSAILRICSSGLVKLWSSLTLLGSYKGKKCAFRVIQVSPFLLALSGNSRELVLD

How the values were obtained:
Assay in all cases: log2 fold change, soluble protein after heating vs DMSO (PISA); higher = thermal stabilisation; K562 cells, 10 uM, 30 min; active = over 0.2 and 3.5 SD of the protein, either way, in both replicates (recomputed)
[1] = compound: COC1=CC=C(C=C1)CN2C=CC3=C2C=C(C=C3)C(=O)NO
How it was run: (§1)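 Soluble protein was defined as the supernatant after 21,000xg for 90 min. It came from K562 cells at 2×10^6 cells/mL given 10 μM compound for 30 min, heated in aliquots for 3 min across 48°C-58°C, pooled, and extracted in PBS with 0.5% NP-40 at 4°C, and was quantified by TMTpro 16plex LC-MS/MS with equalised channel sums. Thermal stability against control samples, from duplicates, is reported as log2 fold change.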

filanesib = compound: CON(C)C(=O)N1N=C(c2cc(F)ccc2F)S[C@@]1(CCCN)c1ccccc1 [filanesib]
How it was run: as §1

zotarolimus = compound: CO[C@H]1C[C@@H]2CC[C@@H](C)[C@@](O)(O2)C(=O)C(=O)N2CCCC[C@H]2C(=O)O[C@H]([C@H](C)C[C@@H]2CC[C@H](n3cnnn3)[C@H](OC)C2)CC(=O)[C@H](C)/C=C(\C)[C@@H](O)[C@@H](OC)C(=O)[C@H](C)C[C@H](C)/C=C/C=C/C=C/1C [zotarolimus]
How it was run: as §1

idasanutlin = compound: COc1cc(C(=O)O)ccc1NC(=O)[C@@H]1N[C@@H](CC(C)(C)C)[C@](C#N)(c2ccc(Cl)cc2F)[C@H]1c1cccc(Cl)c1F [idasanutlin]
How it was run: as §1

alisertib = compound: COc1cc(Nc2ncc3c(n2)-c2ccc(Cl)cc2C(c2c(F)cccc2OC)=NC3)ccc1C(=O)O [alisertib]
How it was run: as §1

[2] = compound: COc1cc2nc(-c3cc(F)ccc3O)nc(N[C@@H]3CNC[C@H]3C(C)(C)O)c2cc1OC
How it was run: as §1

gefitinib = compound: COc1cc2ncnc(Nc3ccc(F)c(Cl)c3)c2cc1OCCCN1CCOCC1 [gefitinib]
How it was run: as §1

[3] = compound: COc1cccc2cc(-c3nc([C@H]4CC[C@H](C(=O)O)CC4)n4ncnc(N)c34)[nH]c12
How it was run: as §1

lapatinib = compound: CS(=O)(=O)CCNCc1ccc(-c2ccc3ncnc(Nc4ccc(OCc5cccc(F)c5)c(Cl)c4)c3c2)o1 [lapatinib]
How it was run: as §1

pictilisib = compound: CS(=O)(=O)N1CCN(Cc2cc3nc(-c4cccc5[nH]ncc45)nc(N4CCOCC4)c3s2)CC1 [pictilisib]
How it was run: as §1

Measured: log2 fold change

RPL29 (UniProt P47914)
inactive: [1] -0.088 | filanesib 0.598 | zotarolimus 0.057 | idasanutlin 0.327 | alisertib -0.159 | [2] -0.265 | gefitinib -0.051 | [3] -0.292 | lapatinib 0.256 | pictilisib -0.153

RPL21 (UniProt P46778)
inactive: [1] -0.147 | filanesib 0.758 | zotarolimus -0.016 | idasanutlin 0.331 | alisertib -0.178 | [2] -0.197 | gefitinib -0.073 | [3] -0.395 | lapatinib 0.304 | pictilisib -0.192

RPL9 (UniProt P32969)
inactive: [1] -0.038 | filanesib 0.563 | zotarolimus 0.066 | idasanutlin 0.304 | alisertib -0.16 | [2] -0.137 | gefitinib -0.075 | [3] -0.46 | lapatinib 0.29 | pictilisib -0.31

ROCK2 (UniProt O75116)
inactive: [1] -0.009 | filanesib -0.006 | zotarolimus 0.023 | idasanutlin 0 | alisertib 0.072 | [2] 0.135 | gefitinib 0.045 | [3] -0.038 | lapatinib -0.029 | pictilisib 0.071

RPS11 (UniProt P62280)
inactive: [1] -0.083 | filanesib 0.35 | zotarolimus -0.031 | idasanutlin 0.184 | alisertib -0.144 | [2] -0.053 | gefitinib -0.068 | [3] -0.287 | lapatinib 0.135 | pictilisib -0.251

RPP25 (UniProt Q9BUL9)
inactive: [1] 0.009 | filanesib 0.041 | zotarolimus 0.042 | idasanutlin 0.039 | alisertib -0.137 | [2] -0.024 | gefitinib -0.008 | [3] -0.009 | lapatinib 0.024 | pictilisib -0.054

RO60 (UniProt P10155)
inactive: [1] 0.024 | filanesib 0.021 | zotarolimus -0.024 | idasanutlin 0.009 | alisertib -0.08 | [2] -0.04 | gefitinib -0.012 | [3] 0.042 | lapatinib -0.005 | pictilisib 0.067

RPL8 (UniProt P62917)
inactive: [1] -0.103 | filanesib 0.714 | zotarolimus 0.08 | idasanutlin 0.341 | alisertib -0.239 | [2] -0.21 | gefitinib -0.069 | [3] -0.408 | lapatinib 0.328 | pictilisib -0.177

RPS18 (UniProt P62269)
inactive: [1] -0.157 | filanesib 0.118 | zotarolimus 0.012 | idasanutlin 0.046 | alisertib -0.015 | [2] -0.021 | gefitinib -0.013 | [3] -0.109 | lapatinib 0.065 | pictilisib -0.107

RPL12 (UniProt P30050)
inactive: [1] -0.171 | filanesib 0.669 | zotarolimus -0.033 | idasanutlin 0.292 | alisertib -0.147 | [2] -0.188 | gefitinib -0.043 | [3] -0.371 | lapatinib 0.272 | pictilisib -0.232

9 neighbouring records out of the list so far:
RPL21 (UniProt P46778)
inactive: [1] -0.147 | filanesib 0.758 | zotarolimus -0.016 | idasanutlin 0.331 | alisertib -0.178 | [2] -0.197 | gefitinib -0.073 | [3] -0.395 | lapatinib 0.304 | pictilisib -0.192

RPL9 (UniProt P32969)
inactive: [1] -0.038 | filanesib 0.563 | zotarolimus 0.066 | idasanutlin 0.304 | alisertib -0.16 | [2] -0.137 | gefitinib -0.075 | [3] -0.46 | lapatinib 0.29 | pictilisib -0.31

ROCK2 (UniProt O75116)
inactive: [1] -0.009 | filanesib -0.006 | zotarolimus 0.023 | idasanutlin 0 | alisertib 0.072 | [2] 0.135 | gefitinib 0.045 | [3] -0.038 | lapatinib -0.029 | pictilisib 0.071

RPS11 (UniProt P62280)
inactive: [1] -0.083 | filanesib 0.35 | zotarolimus -0.031 | idasanutlin 0.184 | alisertib -0.144 | [2] -0.053 | gefitinib -0.068 | [3] -0.287 | lapatinib 0.135 | pictilisib -0.251

RPP25 (UniProt Q9BUL9)
inactive: [1] 0.009 | filanesib 0.041 | zotarolimus 0.042 | idasanutlin 0.039 | alisertib -0.137 | [2] -0.024 | gefitinib -0.008 | [3] -0.009 | lapatinib 0.024 | pictilisib -0.054

RO60 (UniProt P10155)
inactive: [1] 0.024 | filanesib 0.021 | zotarolimus -0.024 | idasanutlin 0.009 | alisertib -0.08 | [2] -0.04 | gefitinib -0.012 | [3] 0.042 | lapatinib -0.005 | pictilisib 0.067

RPL8 (UniProt P62917)
inactive: [1] -0.103 | filanesib 0.714 | zotarolimus 0.08 | idasanutlin 0.341 | alisertib -0.239 | [2] -0.21 | gefitinib -0.069 | [3] -0.408 | lapatinib 0.328 | pictilisib -0.177

RPS18 (UniProt P62269)
inactive: [1] -0.157 | filanesib 0.118 | zotarolimus 0.012 | idasanutlin 0.046 | alisertib -0.015 | [2] -0.021 | gefitinib -0.013 | [3] -0.109 | lapatinib 0.065 | pictilisib -0.107

RPL12 (UniProt P30050)
inactive: [1] -0.171 | filanesib 0.669 | zotarolimus -0.033 | idasanutlin 0.292 | alisertib -0.147 | [2] -0.188 | gefitinib -0.043 | [3] -0.371 | lapatinib 0.272 | pictilisib -0.232

Continued:

RPS15A (UniProt P62244)
inactive: [1] -0.074 | filanesib 0.332 | zotarolimus -0.021 | idasanutlin 0.174 | alisertib -0.075 | [2] -0.101 | gefitinib -0.062 | [3] -0.252 | lapatinib 0.179 | pictilisib -0.143

RPL13 (UniProt P26373)
inactive: [1] -0.156 | filanesib 0.781 | zotarolimus -0.055 | idasanutlin 0.347 | alisertib -0.149 | [2] -0.119 | gefitinib -0.079 | [3] -0.357 | lapatinib 0.319 | pictilisib -0.077

RPS10 (UniProt P46783)
inactive: [1] -0.048 | filanesib 0.14 | zotarolimus -0.036 | idasanutlin 0.058 | alisertib -0.104 | [2] -0.005 | gefitinib -0.004 | [3] -0.15 | lapatinib 0.112 | pictilisib -0.151

RPL22 (UniProt P35268)
inactive: [1] -0.067 | filanesib 0.256 | zotarolimus 0.1 | idasanutlin 0.16 | alisertib -0.037 | [2] -0.031 | gefitinib -0.065 | [3] -0.156 | lapatinib 0.047 | pictilisib -0.039

RPL15 (UniProt P61313)
inactive: [1] -0.16 | filanesib 0.786 | zotarolimus 0.003 | idasanutlin 0.41 | alisertib -0.19 | [2] -0.167 | gefitinib -0.093 | [3] -0.39 | lapatinib 0.346 | pictilisib -0.221

RNF5 (UniProt Q99942)
inactive: [1] 0.275 | filanesib -0.181 | zotarolimus -0.026 | idasanutlin -0.081 | alisertib 0.005 | [2] -0.279 | gefitinib -0.016 | [3] -0.006 | lapatinib -0.06 | pictilisib -0.039

RPS7 (UniProt P62081)
inactive: [1] -0.065 | filanesib 0.251 | zotarolimus -0.031 | idasanutlin 0.143 | alisertib -0.123 | [2] -0.049 | gefitinib -0.063 | [3] -0.303 | lapatinib 0.157 | pictilisib -0.248

RPIA (UniProt P49247)
inactive: [1] -0.017 | filanesib -0.032 | zotarolimus -0.024 | idasanutlin -0.019 | alisertib -0.036 | [2] 0.006 | gefitinib 0.012 | [3] 0.091 | lapatinib 0.007 | pictilisib 0.051

RPL36A (UniProt P83881)
inactive: [1] -0.234 | filanesib 0.551 | zotarolimus 0.06 | idasanutlin 0.149 | alisertib -0.131 | [2] -0.205 | gefitinib 0.002 | [3] -0.326 | lapatinib 0.175 | pictilisib -0.284

RPL19 (UniProt P84098)
inactive: [1] -0.099 | filanesib 0.573 | zotarolimus 0.066 | idasanutlin 0.203 | alisertib -0.153 | [2] -0.103 | gefitinib -0.034 | [3] -0.255 | lapatinib 0.172 | pictilisib -0.067

RPP30 isoform 2 (UniProt P78346)
inactive: [1] 0.012 | filanesib -0.042 | zotarolimus -0.032 | idasanutlin 0.037 | alisertib -0.115 | [2] -0.073 | gefitinib 0.012 | [3] 0.007 | lapatinib 0.053 | pictilisib -0.083

RPL14 (UniProt P50914)
inactive: [1] -0.135 | filanesib 0.744 | zotarolimus 0.154 | idasanutlin 0.349 | alisertib -0.181 | [2] -0.154 | gefitinib -0.035 | [3] -0.475 | lapatinib 0.367 | pictilisib -0.167

RPS14 (UniProt P62263)
inactive: [1] 0.034 | filanesib 0.046 | zotarolimus 0.028 | idasanutlin 0.062 | alisertib -0.209 | [2] -0.047 | gefitinib -0.048 | [3] -0.154 | lapatinib 0.132 | pictilisib -0.321

RPS13 (UniProt P62277)
inactive: [1] -0.132 | filanesib 0.394 | zotarolimus 0.015 | idasanutlin 0.145 | alisertib -0.164 | [2] -0.012 | gefitinib -0.051 | [3] -0.316 | lapatinib 0.117 | pictilisib -0.226

RPL24 (UniProt P83731)
inactive: [1] -0.041 | filanesib 0.473 | zotarolimus -0.025 | idasanutlin 0.207 | alisertib -0.159 | [2] -0.039 | gefitinib -0.004 | [3] -0.387 | lapatinib 0.195 | pictilisib -0.202

RPL13A (UniProt P40429)
inactive: [1] -0.115 | filanesib 0.715 | zotarolimus 0.077 | idasanutlin 0.306 | alisertib -0.181 | [2] -0.266 | gefitinib -0.099 | [3] -0.453 | lapatinib 0.407 | pictilisib -0.27

RPL10 (UniProt P27635)
inactive: [1] -0.098 | filanesib 0.526 | zotarolimus 0.024 | idasanutlin 0.234 | alisertib -0.191 | [2] -0.143 | gefitinib -0.045 | [3] -0.478 | lapatinib 0.251 | pictilisib -0.272

RPL6 (UniProt Q02878)
inactive: [1] -0.105 | filanesib 0.762 | zotarolimus 0.083 | idasanutlin 0.317 | alisertib -0.198 | [2] -0.163 | gefitinib -0.102 | [3] -0.48 | lapatinib 0.366 | pictilisib -0.155

RPP25L (UniProt Q8N5L8)
inactive: [1] 0.107 | filanesib 0.012 | zotarolimus -0.002 | idasanutlin 0.069 | alisertib -0.093 | [2] -0.12 | gefitinib 0.054 | [3] -0.068 | lapatinib 0.042 | pictilisib -0.052

RPP14 (UniProt O95059)
inactive: [1] -0.006 | filanesib 0.046 | zotarolimus 0.004 | idasanutlin -0.038 | alisertib -0.051 | [2] -0.053 | gefitinib -0.022 | [3] 0.047 | lapatinib 0.042 | pictilisib -0.19
